Data as given in PubChem BioAssay AID686938 (Drosophila RNAi Screening Center, 2013)

- Aim: 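Knock-downs reducing store-operated calcium influx in Drosophila cells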 (primary screen)
- Cells: Drosophila S2R+ cells
- Knock-down reagent: long dsRNA against Drosophila genes, about 0.25 µg dsRNA per well, roughly 10,000 cells
- Time to read-out: 5 days of knock-down before the calcium assay
- Treatment: thapsigargin (SERCA pump blocker) to empty calcium stores; entry signal taken 4 min after adding it
- Detection: 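Duplicate raw fluo-4 intensities per well from a plate reader, at rest and four minutes after thapsigargin emptied calcium stores; entry-to-rest ratio filled for only some wells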
- Scale: calcium entry signal: higher = stronger calcium signal after store depletion; entry to resting ratio: higher = more calcium entry relative to resting level; resting calcium signal: higher = higher resting calcium signal
- Rule for the call: 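Hit if the duplicate-averaged plate z-score for entry over resting signal is under −3; wells with weak total dye signal (Fmax z < −2) or more than 5 off-targets removed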
- Calls: active = strongly reduced calcium entry; inactive = no strong reduction
The deposit covers about 23,000 reagents; this is a random part of those with a known target gene and a result. Over the whole deposit, 75 (0.33%) got an active call. 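Raw plate signals without normalisation; calls rest on plate z-scores that were not deposited; ratio present for only 364 wells.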 Entries without a mark were called inactive. Names joined by + are all predicted targets of the reagent. The record does not give: the dose of the treatment.

Target gene	amplicon	calcium entry signal, replicate 1 (fluorescence units)	calcium entry signal, replicate 2 (fluorescence units)	entry to resting ratio	resting calcium signal, replicate 1 (fluorescence units)	resting calcium signal, replicate 2 (fluorescence units)
KCNQ (KCNQ potassium channel)	DRSC06121	4.93e7	4.16e7		2.19e7	1.69e7
KCNQ (KCNQ potassium channel)	DRSC06230	5.00e7	3.89e7		2.22e7	1.72e7
CG9130 + CG9133	DRSC08624	3.03e7	4.25e7		1.59e7	2.31e7
CG9130 + CG9133	DRSC08625	2.94e7	2.98e7		1.39e7	1.42e7
CG9130 + CG9133	DRSC22010	1.96e7	3.54e7		1.07e7	1.68e7
sll (slalom)	DRSC16271	3.78e7	3.93e7		1.69e7	1.69e7
CG11839	DRSC14398	4.35e7	7.17e7		2.07e7	3.14e7
Pdhb (Pyruvate dehydrogenase E1 beta subunit)	DRSC14420	3.52e7	5.12e7		1.71e7	2.33e7
CG8611	DRSC19340	2.66e7	3.78e7		1.31e7	1.52e7
mtsh (mitoshell)	DRSC03070	3.01e7	4.53e7		1.36e7	1.83e7
CG12992	DRSC19512	2.31e7	2.09e7		1.32e7	1.09e7
VhaAC39-1 (Vacuolar H[+] ATPase AC39 subunit 1)	DRSC18242	4.07e7	4.75e7		2.06e7	2.52e7
CG33090	DRSC01908	4.63e7			2.18e7	
CG11113	DRSC06039	3.76e7	3.44e7		1.65e7	1.48e7
Tom20 (Translocase of outer membrane 20)	DRSC10899	3.33e7	4.03e7		1.61e7	2.70e7
CG14926	DRSC02409	3.67e7	4.40e7		1.78e7	1.66e7
Jhbp11 (Juvenile hormone binding protein 11)	DRSC15183	3.63e7	4.66e7		1.66e7	1.84e7
CG32188	DRSC09510	4.24e7	4.73e7		1.89e7	2.12e7
Phm (Peptidylglycine-alpha-hydroxylating monooxygenase)	DRSC04639	3.51e7			1.71e7	
CG31342	DRSC15349	3.45e7	4.20e7		1.45e7	1.84e7
CG31342	DRSC16246	1.99e7	2.96e7		1.05e7	5.51e7
bark (bark beetle)	DRSC00635	3.65e7	3.51e7		1.83e7	1.64e7
CG17712	DRSC00266	4.60e7			2.59e7	
Nf-YC (Nuclear factor Y-box C)	DRSC18272	1.90e7	2.99e7		1.24e7	1.76e7
Nf-YC (Nuclear factor Y-box C)	DRSC23106	4.11e7	3.78e7		1.94e7	1.66e7
Nin (Ninein)	DRSC02007	5.01e7			1.81e7	
CG34326 (retired record)	DRSC19165	3.28e7	3.82e7		1.69e7	1.69e7
a6	DRSC18733	3.47e7	3.73e7		1.66e7	1.86e7
CG13616	DRSC14619	3.38e7	4.96e7		1.89e7	1.92e7
RunxA (Runt related A)	DRSC20400	3.51e7	4.09e7		1.85e7	2.01e7
RunxA (Runt related A)	DRSC20498	4.81e7	4.96e7		2.49e7	2.09e7
RunxA (Runt related A)	DRSC20524	5.60e7	5.32e7		2.67e7	2.34e7
RunxA (Runt related A)	DRSC21915	3.32e7	4.89e7		1.62e7	2.75e7
CG12817 + CG12420	DRSC22814	3.53e7	4.48e7		1.59e7	2.33e7
Orct2 (Organic cation transporter 2)	DRSC14613	3.39e7	3.15e7		1.65e7	1.52e7
CG10077	DRSC09691	5.22e7	3.28e7		3.13e7	1.43e7
CalpA (Calpain-A)	DRSC07352	5.28e7	4.35e7		2.38e7	2.15e7
Ssadh (Succinic semialdehyde dehydrogenase)	DRSC15621	3.26e7	3.84e7		1.52e7	1.97e7
CG2121	DRSC06819	3.94e7	3.86e7		1.69e7	1.78e7
CG2121	DRSC06820	3.67e7	3.04e7		1.63e7	1.41e7
CG31145	DRSC13634	3.36e7	3.70e7		1.66e7	1.78e7
CG31145	DRSC14206	2.62e7	3.53e7		1.30e7	1.51e7
CG31145	DRSC14670	2.23e7	3.07e7		1.33e7	1.38e7
CG31145	DRSC14671	3.04e7	3.42e7		1.42e7	1.40e7
Cpr49Ac (Cuticular protein 49Ac)	DRSC07199	4.00e7	4.63e7		1.78e7	2.16e7
eIF4E1 (eukaryotic translation initiation factor 4E1)	DRSC11342	3.16e7	2.86e7		2.81e7	1.60e7
CG34224	DRSC05269	5.50e7	4.02e7		2.74e7	1.60e7
E(bx) (Enhancer of bithorax)	DRSC08172	3.47e7	3.97e7		1.88e7	1.84e7
E(bx) (Enhancer of bithorax)	DRSC08509	3.27e7	3.70e7		1.74e7	1.75e7
E(bx) (Enhancer of bithorax)	DRSC08583	4.82e7	3.94e7		2.19e7	1.99e7
Muc55B (Mucin 55B)	DRSC21440	4.12e7	2.96e7		2.26e7	1.41e7
CG17328	DRSC01927	5.09e7	3.70e7		2.19e7	1.78e7
CG17328	DRSC22448	3.60e7	2.87e7		1.55e7	1.10e7
Efr (ER GDP-fucose transporter)	DRSC18322	3.00e7	3.39e7		1.54e7	1.76e7
Ir40a (Ionotropic receptor 40a)	DRSC03732	3.81e7	5.21e7		1.92e7	2.13e7
Ir40a (Ionotropic receptor 40a)	DRSC03733	3.85e7	5.05e7		2.03e7	2.10e7
CG14778	DRSC17953	4.44e7	4.71e7	2	2.24e7	2.04e7
lncRNA:CR32027 (long non-coding RNA:CR32027)	DRSC09571	3.64e7	3.29e7		1.83e7	1.88e7

Reprinted from above for reference:
Target gene	amplicon	calcium entry signal, replicate 1 (fluorescence units)	calcium entry signal, replicate 2 (fluorescence units)	entry to resting ratio	resting calcium signal, replicate 1 (fluorescence units)	resting calcium signal, replicate 2 (fluorescence units)
Muc55B (Mucin 55B)	DRSC21440	4.12e7	2.96e7		2.26e7	1.41e7
CG17328	DRSC01927	5.09e7	3.70e7		2.19e7	1.78e7
CG17328	DRSC22448	3.60e7	2.87e7		1.55e7	1.10e7
Efr (ER GDP-fucose transporter)	DRSC18322	3.00e7	3.39e7		1.54e7	1.76e7
Ir40a (Ionotropic receptor 40a)	DRSC03732	3.81e7	5.21e7		1.92e7	2.13e7
Ir40a (Ionotropic receptor 40a)	DRSC03733	3.85e7	5.05e7		2.03e7	2.10e7
CG14778	DRSC17953	4.44e7	4.71e7	2	2.24e7	2.04e7
